From PubChem BioAssay record AID1347104 (NCATS, 2019).

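Cell-killing test on the RD pediatric muscle tumor line, using a luminescent ATP signal after two days of compound exposure. Compounds were run as dilution series topping out near 46 µM, with the lowest MIPE point at 0.78 nM. The value is the fitted half-maximal potency (AC50) for loss of viability; a lower number means a more potent cytotoxic compound. Calls come from NCATS curve-class scoring; compounds scoring from 1 to 39, such as weak, poorly fitted or top-dose-only curves, are filed as inconclusive.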

Values are in µM. Every entry below has the call inconclusive. These entries are mostly ones the record files as inconclusive; other results of the assay are not listed here. Potencies fitted to partial, single-point or poorly fitting curves are rough. Some entries filed as inconclusive have a full curve. Activity scores are not listed here. An entry listed twice with the same setting is a separate test.

compound | fitted potency (µM) | remark
COc1cc(C(C)=O)ccc1OCCCN1CCC(c2noc3cc(F)ccc23)CC1 | 41.76 | cytotoxic, single point
O=C1c2c(O)cc(O)cc2O[C@H](c2cc(O)c(O)c(O)c2)[C@H]1O | 4.686 | cytotoxic, full curve
O=c1c(O)c(-c2ccc(O)cc2)oc2cc(O)cc(O)c12 | 18.65 | cytotoxic, partial curve
Cc1nc2sccn2c(=O)c1CCN1CCC(=C(c2ccc(F)cc2)c2ccc(F)cc2)CC1 | 33.5 | cytotoxic, single point
Cc1ccc(F)c(NC(=O)Nc2ccc(-c3cccc4[nH]nc(N)c34)cc2)c1 | 23.48 | cytotoxic, single point
NC(=O)c1ccc2nc(-c3ccc(Oc4ccc(Cl)cc4)cc3)[nH]c2c1 | 26.35 | cytotoxic, single point
O=c1cc[nH]c(=S)[nH]1 | 0.1 | cytotoxic, full curve
C=C(c1ccc(C(=O)O)cc1)c1cc2c(cc1C)C(C)(C)CCC2(C)C | 29.86 | cytotoxic, single point
C=CC[N+]1([C@H]2C[C@H]3[C@@H]4CC[C@H]5C[C@H](O)[C@@H](N6CCOCC6)C[C@]5(C)[C@@H]4CC[C@]3(C)[C@H]2OC(C)=O)CCCC1 | 29.57 | cytotoxic, partial curve
Cc1ccc(-n2nc(C(C)(C)C)cc2NC(=O)Nc2ccc(OCCN3CCOCC3)c3ccccc23)cc1 | 29.86 | cytotoxic, partial curve, poor fit
CN1CCC(=C2c3ccccc3CCc3sccc32)CC1 | 14.96 | cytotoxic, partial curve, poor fit
N#Cc1ccc(COC[C@H]2O[C@@H](n3c(NCc4ccc(Cl)c(Cl)c4)nc4c(N)ncnc43)[C@@H](O)[C@@H]2O)cc1 | 16.63 | cytotoxic, partial curve
CN(C)CCCN1c2ccccc2CCc2ccccc21 | 29.86 | cytotoxic, single point
CSc1ccc2c(c1)C(N1CCN(C)CC1)Cc1ccccc1S2 (centres unmarked) | 26.61 | cytotoxic, single point
CCOc1ccccc1C(N)=O | 26.61 | cytotoxic, single point
Cn1cc(C=C2C(=O)Nc3cccnc32)c2ccccc21 | 33.17 | cytotoxic, single point
CCCC(=O)OC[C@@H](OC(=O)CCC)[C@@H](OC(=O)CCC)[C@H](Cn1c2nc(=O)[nH]c(=O)c-2nc2cc(C)c(C)cc21)OC(=O)CCC | 16.79 | cytotoxic, partial curve, poor fit
CCCCN(CCCC)CCC(O)c1cc2c(Cl)cc(Cl)cc2c2cc(C(F)(F)F)ccc12 (centres unmarked) | 26.61 | cytotoxic, single point
COc1cc(C(C)=O)ccc1OCCCN1CCC(c2noc3cc(F)ccc23)CC1 | 23.72 | cytotoxic, single point
COc1ccc(/C=C/C(=O)c2ccc(OC)cc2OC)cc1 | 29.86 | cytotoxic, single point
Cc1ccc(NC(=O)c2ccc(CN3CCN(C)CC3)cc2)cc1Nc1nccc(-c2cccnc2)n1 | 26.35 | cytotoxic, single point
Nc1ccccc1N | 27.31 | cytotoxic, partial curve
CCCS(=O)c1ccc2nc(NC(=O)OC)[nH]c2c1 (centres unmarked) | 18.65 | cytotoxic, partial curve
Cc1ccc(NC(=O)c2ccc(CN3CCN(C)CC3)cc2)cc1Nc1nccc(-c2cccnc2)n1 | 26.61 | cytotoxic, single point
C=CC(=O)Nc1cccc(Sc2nc(Nc3ccc(N4CCN(C)CC4)cc3)ncc2Cl)c1 | 18.65 | cytotoxic, partial curve, poor fit
CCCCC(C)(C)[C@H](O)C=C[C@H]1[C@H](O)CC(=O)[C@H]1CC=CCCCC(=O)O | 7.427 | cytotoxic, partial curve
CN1CCC(=C2c3ccccc3CCc3sccc32)CC1 | 33.17 | cytotoxic, single point
O=C1NC(=O)C(=Cc2ccc3nccnc3c2)S1 | 5.749 | cytotoxic, partial curve
Cc1csc(NC(=O)c2sc3nc4c(c(C(F)(F)F)c3c2N)CCC4)n1 | 3.317 | cytotoxic, partial curve, poor fit
c1ccc(-c2ccc(C(c3ccccc3)n3ccnc3)cc2)cc1 (centres unmarked) | 23.72 | cytotoxic, single point
CC(C)(Sc1cc(C(C)(C)C)c(O)c(C(C)(C)C)c1)Sc1cc(C(C)(C)C)c(O)c(C(C)(C)C)c1 | 4.176 | cytotoxic, full curve
CN(C(Cc1ccc(OS(=O)(=O)c2cccc3cnccc23)cc1)C(=O)N1CCN(c2ccccc2)CC1)S(=O)(=O)c1cccc2cnccc12 (centres unmarked) | 16.63 | cytotoxic, partial curve
CCCS(=O)c1ccc2nc(NC(=O)OC)[nH]c2c1 (centres unmarked) | 23.72 | cytotoxic, single point
Cc1ccccc1C(C(=O)NC1CCCC1)N(C(=O)Cn1cnc2ccccc21)c1cccc(F)c1 (centres unmarked) | 18.65 | cytotoxic, partial curve
CO[C@H]1C(=O)[C@]2(C)[C@@H](OC)C[C@H]3OC[C@@]3(OC(C)=O)[C@H]2[C@H](OC(=O)c2ccccc2)[C@]2(O)C[C@H](OC(=O)[C@H](O)[C@@H](NC(=O)OC(C)(C)C)c3ccccc3)C(C)=C1C2(C)C | 0.0372 | cytotoxic, full curve

The first 2 entries again:

| compound | fitted potency (µM) | remark |
|---|---|---|
| `COc1cc(C(C)=O)ccc1OCCCN1CCC(c2noc3cc(F)ccc23)CC1` | 41.76 | cytotoxic, single point |
| `O=C1c2c(O)cc(O)cc2O[C@H](c2cc(O)c(O)c(O)c2)[C@H]1O` | 4.686 | cytotoxic, full curve |